From article PMC3628108 come the findings set out here.

Chains of the proteins cited; added tags and fusions are not shown.
UniProt Q15910: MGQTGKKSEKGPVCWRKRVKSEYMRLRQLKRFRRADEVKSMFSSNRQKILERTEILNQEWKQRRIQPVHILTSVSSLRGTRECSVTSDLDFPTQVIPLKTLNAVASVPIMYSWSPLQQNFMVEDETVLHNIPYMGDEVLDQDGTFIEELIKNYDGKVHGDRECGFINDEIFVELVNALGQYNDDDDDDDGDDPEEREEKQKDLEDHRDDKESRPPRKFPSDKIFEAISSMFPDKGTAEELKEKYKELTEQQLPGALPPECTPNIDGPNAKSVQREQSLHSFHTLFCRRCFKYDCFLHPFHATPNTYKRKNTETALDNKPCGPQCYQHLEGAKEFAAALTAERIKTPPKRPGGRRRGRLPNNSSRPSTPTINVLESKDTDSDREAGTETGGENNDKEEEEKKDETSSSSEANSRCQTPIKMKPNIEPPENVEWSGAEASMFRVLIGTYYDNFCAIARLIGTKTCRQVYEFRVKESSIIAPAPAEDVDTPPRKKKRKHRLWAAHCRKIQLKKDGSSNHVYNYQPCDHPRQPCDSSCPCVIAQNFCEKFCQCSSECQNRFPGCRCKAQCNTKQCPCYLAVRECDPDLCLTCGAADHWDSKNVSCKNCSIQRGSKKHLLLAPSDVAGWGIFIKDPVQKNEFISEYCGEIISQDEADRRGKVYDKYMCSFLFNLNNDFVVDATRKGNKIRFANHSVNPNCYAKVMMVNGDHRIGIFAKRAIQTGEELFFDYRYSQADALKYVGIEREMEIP
UniProt Q9HAU4: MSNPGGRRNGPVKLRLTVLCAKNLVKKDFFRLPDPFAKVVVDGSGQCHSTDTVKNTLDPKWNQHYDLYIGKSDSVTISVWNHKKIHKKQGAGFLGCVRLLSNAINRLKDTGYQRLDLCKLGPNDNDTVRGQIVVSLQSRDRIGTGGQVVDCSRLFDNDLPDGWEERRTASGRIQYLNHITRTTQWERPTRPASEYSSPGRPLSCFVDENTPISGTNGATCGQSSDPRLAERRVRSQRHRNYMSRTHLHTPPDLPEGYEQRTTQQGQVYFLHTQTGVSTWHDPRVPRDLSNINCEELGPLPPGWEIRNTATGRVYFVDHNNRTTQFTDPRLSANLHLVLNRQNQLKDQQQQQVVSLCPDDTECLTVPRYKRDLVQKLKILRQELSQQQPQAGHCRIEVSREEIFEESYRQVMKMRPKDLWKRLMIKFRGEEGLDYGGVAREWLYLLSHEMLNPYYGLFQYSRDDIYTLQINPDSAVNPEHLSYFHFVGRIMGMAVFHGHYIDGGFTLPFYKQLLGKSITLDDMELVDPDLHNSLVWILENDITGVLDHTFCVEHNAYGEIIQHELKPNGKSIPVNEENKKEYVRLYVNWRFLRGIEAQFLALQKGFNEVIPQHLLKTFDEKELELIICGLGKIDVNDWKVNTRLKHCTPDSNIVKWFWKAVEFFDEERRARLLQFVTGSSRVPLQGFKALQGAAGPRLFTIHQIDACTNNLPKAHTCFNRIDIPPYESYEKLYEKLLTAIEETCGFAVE

Assay [1] deals with Myc-tagged EZH2 (enhancer of zeste homolog 2) (UniProt Q15910). In words: co-IP; HEK 293 cells transiently transfected with Flag-tagged Smurf2 and Myc-tagged EZH2, with or without MG132.
For assay [2], the target named is endogenous EZH2 (human (endogenous in 3A6-hMSCs)) (UniProt Q15910). In words: co-IP; endogenous proteins in 3A6-hMSCs treated with NIM for 1 day, with or without MG132.

No constants are given. Whether binding was seen depends on the method and setting. In cells and extracts the contact can be indirect. Some entries that bind do so weakly or less than the wild type.

With “Flag-tagged Smurf2 (Smad ubiquitination regulatory factor-2) (from UniProt Q9HAU4 1-748)”, the binding result in assay [1] is reported as “binds”.
As to “endogenous Smurf2 (from UniProt Q9HAU4 1-748)”, the binding entry in assay [2] is listed as “binds”.
